Results from patent US8084016B2, “Measurement of biosynthesis and breakdown rates of biological molecules that are inaccessible or not easily accessible to direct sampling, non-invasively, by label incorporation into metabolic derivatives and catabolitic products” (The Regents of the University of California, priority 2002, dated 2011).
Some results come without the dose or concentration used.

System: muscle myosin
Test: Incorporation of ^2H from ^2H2O into urinary 3-methyl-histidine (muscle myosin biosynthesis)
Assay type: in vivo
Details: human subjects, intake of ^2H2O for 4-8 weeks
Description: An individual undergoing a physical training program or medical therapeutic regimen intended to increase muscle mass by increasing muscle myosin biosynthesis (e.g., an athlete; an elderly person receiving physical therapy after a stroke; a patient with cachexia related to cancer or AIDS who is receiving nutritional or anabolic agent therapy) is given a labeled precursor that is incorporated into the body's proteins during biosynthesis. […] […] […] Total urinary amino acids are isolated with an SPE column. The amino acids are derivatized for gas chromatographic/mass spectrometric analysis. […] The derivatized amino acids are injected into a gas chromatograph/mass spectrometer (e.g., HP 5973 instrument), using, e.g., a DB-225 column. The mass spectrum of the 3-methyl histidine peak is collected while monitoring mass isotopomers at m/z 267 and 268 (parent and M+1 ions, respectively). Relative abundances of the above mass isotopomers are quantified in samples and compared to unlabeled standards ([…] 267+268]=0.1200 in samples and 0.0960 in standards). The proportion of labeled:unlabeled molecules present in the sample is calculated for 3-methylhistidine using MIDA.

Cn1cncc1C[C@H](N)C(=O)O [3-methyl-histidine]
A1^∞: calculated maximal EM1 of 3-methyl histidine at measured ^2H2O: 3.3 | EM1: excess M + 1 mass isotopomer in t-butyl dimethyl silyl derivative of 3-methyl histidine (urinary): 2.6
